Source: PubChem BioAssay AID2685 (National Center for Advancing Translational Sciences (NCATS), 2010)
This is one part of the list. Shown are side measurements of this screen, not its main read-out; they come without a call. The list favours compounds with an active or inconclusive main result. The note in brackets gives the kind of curve behind each potency; many fits are weak.

Assay: qHTS Assay for Lipid Storage Modulators in Drosophila S3 Cells;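 as to cell number change: cells counted by Cell Tracker Red CMTPX staining in the red channel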
Conditions: BODIPY lipid droplet fluorescence, 18-24 h; for cell number change: measured here: cell count max response, cells fed with added oleic acid
Procedure, shortened: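 Drosophila S3 cells got compounds at several concentrations plus oleic acid (400 uM solution). Laser-scanning cytometry with 488 nm excitation read lipid droplets at 500-530 nm and cells at 575-640 nm. Percent activity was relative to 20 uM Triacsin C.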

[1] = measured here: lipid fluorescence (Fed channel) AC50, cells fed with added oleic acid
[2] = measured here: cell number channel AC50, cells fed with added oleic acid

SMILES | cell number change [%] | AC50 [1] | AC50 [2]
O=C(CSc1ccc2nnc(-c3ccccn3)n2n1)N1CCN(c2ccccc2)CC1 | 2.03 |  | 
COc1cccc(C2c3c(oc4cc(C)c(C)cc4c3=O)C(=O)N2CCCN(C)C)c1 (stereo not drawn) | 16.1 |  | 
CC1CCN(S(=O)(=O)c2ccc3c(c2)N(CC(=O)NCCCN2CC(C)CC(C)C2)C(=O)CS3)CC1 (stereo not drawn) |  | 29100 nM [rising, single point] | 
COc1ccc(CN2C(=O)c3ccccc3C2=O)cc1C(=O)N(C)CC(=O)Nc1c(C)cccc1C | -2.72 | 5800 nM [falling, full curve, poor fit] | 
COc1cccc(-c2nc(CCl)cs2)c1OC | -38.1 | 65.1 nM [falling, full curve] | 5.17 nM [falling, full curve, poor fit]
O=[N+]([O-])c1cccc(/C([O-])=C(/C(=S)Nc2ccccc2)[n+]2ccccc2)c1 | -1.24 |  | 
C/C=C(\C)CN1CCC(Oc2cc(C(=O)NC3CC3)ccc2OC)CC1 | 8.67 |  | 
CCc1ccc(CN2CCC(n3nccc3NC(=O)Cc3ccccc3)CC2)o1 | 9.54 | 2910 nM [rising, full curve] | 
CC(C(=O)Nc1ccccc1)N(C)Cc1cccs1 (stereo not drawn) | -13.2 |  | 
Cc1nccn1CCCNC(=O)CC1C(=O)NCCN1Cc1ccc(Cl)c(F)c1 (stereo not drawn) | -11.2 | 820 nM [falling, single point] | 
O=C(Nc1ccc(O)c(C(=O)O)c1)c1ccc2c(c1)C(=O)N(CC1CCCO1)C2=O (stereo not drawn) | -2.07 |  | 
COc1ccc(S(=O)(=O)Cc2ccc(C(=O)N3CCN(c4cc(C)ccc4C)CC3)o2)cc1 | 8.4 |  | 3260 nM [falling, single point]
COc1ccc(/C=C(/NC(C)=O)C(=O)O)cc1 | 43.4 | 20600 nM [rising, partial curve] | 1160 nM [rising, full curve, poor fit]
O=C(CSc1nnc(-c2ccncc2)n1C1CCCCC1)Nc1cccc(O)c1 | 0.404 | 29100 nM [rising, single point] | 
COc1ccc(N/C=C\C(=O)c2ccc(C)cc2)cc1OC | 12.2 |  | 
Cc1nn(Cc2ccccc2Cl)c2sc(C(=O)NCc3ccc4c(c3)OCO4)cc12 |  | 461 nM [rising, partial curve, poor fit] | 1030 nM [rising, partial curve]
O=C(NCCC(=O)N1CCCC1)c1ccccc1Cl | 13 | 1300 nM [rising, full curve] | 
CCOP(=O)(OCC)C(Nc1cccc(C(F)(F)F)c1)c1ccc(C)cc1 (stereo not drawn) | -2.24 | 651 nM [falling, partial curve, poor fit] | 
Cc1ccc(Nc2nc(N)nc(CSc3nccn3C)n2)c(C)c1 | 16.8 | 920 nM [rising, partial curve] | 
Cc1ccnc(SCCn2c(N3CCN(C)CC3)nc3c2c(=O)n(C)c(=O)n3C)n1 | -11.7 | 231 nM [falling, full curve, poor fit] | 

Pulled by structure from the list above (two):
SMILES | cell number change [%] | AC50 [1] | AC50 [2]
Cc1nn(Cc2ccccc2Cl)c2sc(C(=O)NCc3ccc4c(c3)OCO4)cc12 |  | 461 nM [rising, partial curve, poor fit] | 1030 nM [rising, partial curve]
O=[N+]([O-])c1cccc(/C([O-])=C(/C(=S)Nc2ccccc2)[n+]2ccccc2)c1 | -1.24 |  | 

(listing goes on)

SMILES | cell number change [%] | AC50 [1] | AC50 [2]
Cc1ccc(NC(=O)CSCC(=O)OC(C)C(=O)Nc2ccc(S(N)(=O)=O)cc2)c(C)c1 (stereo not drawn) | -3.1 |  | 
Cc1ccc(NC(=O)CSc2nnc(-c3cnccn3)n2C)cc1C | -10.5 | 6.51 nM [rising, full curve, poor fit] | 
O=C(c1cn(-c2ccccc2)nc1-c1cccs1)N(CCO)Cc1ccccc1 |  | 461 nM [rising, partial curve] | 
COc1ccc(C(=O)OCC(=O)N(C)C2CCS(=O)(=O)C2)cc1S(=O)(=O)N(C)Cc1ccccc1 (stereo not drawn) | -16.4 | 10300 nM [falling, partial curve] | 820 nM [falling, full curve, poor fit]
Cc1ccc2c(c1)-c1c(cnn1CC(=O)N(Cc1ccco1)C1CCCCC1)CO2 |  | 9200 nM [rising, partial curve, poor fit] | 
COC(=O)[C@@]1(Cc2ccc(F)cc2)[C@H]2c3cc(C(=O)N(C)C)n(CCSCCO)c3C[C@H]2CN1C(=O)c1ccccc1 | -1.7 | 4.61 nM [rising, full curve, poor fit] | 
O=C(NN=C1CCCC1)c1cc(-c2ccccc2)n[nH]1 | 7.78 | 6510 nM [falling, single point] | 
O=C(CNC(=O)c1cccc([N+](=O)[O-])c1)NC1CCCc2ccccc21 (stereo not drawn) | -1.55 |  | 
CCCC[C@@H](CNC)NC[C@H](Cc1ccc(O)cc1)NCCc1ccc(OCC)cc1 | 0.299 |  | 
O=S(=O)(NCCc1csc(-c2cccnc2)n1)c1cccc(F)c1 | -15.1 | 7310 nM [falling, partial curve, poor fit] | 
COc1ccc(-c2csc(NC(=O)CSc3n[nH]c(C)n3)n2)cc1 | 1.3 |  | 
CC1(c2ccc3noc(-c4ccc(F)cc4)c3c2)OCCO1 | 31.2 | 25900 nM [rising, partial curve, poor fit] | 29100 nM [rising, single point]
COc1cc(S(=O)(=O)N2CCOCC2)ccc1NC(=O)c1cc2c(s1)CCC2 |  | 580 nM [rising, partial curve] | 580 nM [rising, single point]
CC(=O)Nc1ccc(N(CC(=O)NCC2CCCO2)C(=O)CCC(=O)Nc2cc(C)on2)cc1 (stereo not drawn) | 0.952 |  | 
O=C(NCc1ccc2c(c1)OCO2)C1CCN(C(=O)Nc2ccc(Cl)cc2)CC1 | 29 | 1640 nM [rising, partial curve] | 
CCCOc1cc(CC(=O)NCc2ccco2)ccc1OC | 155 |  | 20600 nM [rising, partial curve]
CC(C)c1ccc(Nc2ncccc2C#N)cc1 | -1.23 | 164 nM [rising, full curve, poor fit] | 
CCCCN1C(=O)C2NN=C(C(=O)OCC)C2C1=O (stereo not drawn) | -13 | 2060 nM [rising, single point] | 
O=C(/C=C/c1cc2c(cc1Br)OCO2)NCc1ccc(F)cc1 |  | 920 nM [rising, full curve] | 
COc1ccc(CN2C(=O)NC3(CCCc4ccccc43)C2=O)cc1F (stereo not drawn) |  | 103 nM [rising, single point] | 116 nM [rising, single point]
